Data as given in PubChem BioAssay AID504793 (Drosophila RNAi Screening Center, 2011).
The deposit covers about 23,000 reagents; shown is an unselected part of those that have a named target and a result. Of all reagents, 62 (0.27%) were called active. 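Calls come from follow-up tests whose scores are not deposited, so confirmed genes may have low counts here; counts are not normalised per plate.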 Raw values are not corrected between plates. Names joined by + are all predicted targets of the reagent.

- Purpose: 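Whole-genome screen for parts of the DNA damage checkpoint at G2/M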 (primary screen)
- Cells: Drosophila S2R+ cells
- Knock-down reagent: long dsRNA against Drosophila genes, about 0.25 µg dsRNA per well
- Timing: 4 days of dsRNA, then 4 hours of drug before read-out
- Treatment: doxorubicin 0.5 µM for 4 hours to cause double-strand breaks, in cells also given a low, harmless dose of dsRNA against nbs to sensitise the assay
- Measured: 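Mitotic index as the number of phospho-histone H3-positive cells in each well following doxorubicin, given as raw counts without normalisation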
- Scale: mitotic cells: higher = more cells in mitosis, weaker G2 arrest
- Active means: 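Genes are called active only when high mitotic counts were reproduced with independent dsRNAs and mitosis was checked for delay without damage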
- Meaning of the calls: active = confirmed in follow-up tests; inactive = not confirmed

no.	Gene	dsRNA	mitotic cells, replicate 1	outcome
1	CG13705	DRSC08314	5	inactive
2	CG13705	DRSC22691	14	inactive
3	CG13705	DRSC25173	6	inactive
4	toy (twin of eyeless)	DRSC17222	15	inactive
5	toy (twin of eyeless)	DRSC25870	4	inactive
6	Gr58a (Gustatory receptor 58a)	DRSC03910	8	inactive
7	CG3803	DRSC04420	7	inactive
8	eEF1delta (eukaryotic translation elongation factor 1 delta)	DRSC02790	1	inactive
9	eEF1delta (eukaryotic translation elongation factor 1 delta)	DRSC26084	5	inactive
10	Hex-A (Hexokinase A)	DRSC18259	8	inactive
11	Hex-A (Hexokinase A)	DRSC25354	2	inactive
12	CG12299	DRSC02158	6	inactive
13	CG12299	DRSC23611	8	inactive
14	MED18 (Mediator complex subunit 18)	DRSC18549	11	inactive
15	CG4942	DRSC10462	6	inactive
16	wap (wings apart)	DRSC20626	6	inactive
17	CG11241	DRSC11641	8	inactive
18	CG11241	DRSC22165	9	inactive
19	CG34427	DRSC09978	3	inactive
20	CG12477	DRSC09886	8	inactive
21	CG12477	DRSC24078	5	inactive
22	snama (something that sticks like glue)	DRSC04049	11	inactive
23	snama (something that sticks like glue)	DRSC28914	8	inactive
24	CG6675	DRSC03735	8	inactive
25	Ir62a (Ionotropic receptor 62a)	DRSC08250	14	inactive
26	CG6429	DRSC06986	8	inactive
27	CG13443	DRSC06403	7	inactive
28	CG34386	DRSC06468	9	inactive
29	CG34386	DRSC23234	8	inactive
30	CG34386	DRSC29597	5	inactive
31	cad (caudal)	DRSC23193	5	inactive
32	cad (caudal)	DRSC27989	13	inactive
33	btz (barentsz)	DRSC14566	7	inactive
34	btz (barentsz)	DRSC23613	3	inactive
35	Ntan1 (N-terminal amidohydrolase 1)	DRSC07546	6	inactive
36	CG7889	DRSC20066	9	inactive
37	CG7889	DRSC26654	11	inactive
38	Srp72 (Signal recognition particle 72)	DRSC15800	8	inactive
39	Srp72 (Signal recognition particle 72)	DRSC28338	12	inactive
40	CG6472	DRSC06989	9	inactive
41	CG31743 + CG34313	DRSC02781	5	inactive
42	CG31743 + CG34313	DRSC02782	3	inactive
43	Uch (Ubiquitin carboxy-terminal hydrolase)	DRSC00797	5	inactive
44	S1P (Site-1 protease)	DRSC11810	5	inactive
45	CG13488	DRSC04133	4	inactive
46	CG2871	DRSC18230	7	inactive
47	CG2871	DRSC21719	5	inactive
48	Osi16 (Osiris 16)	DRSC12135	6	inactive
49	Osi16 (Osiris 16)	DRSC21323	7	inactive
50	CG11231 (retired record)	DRSC17207	9	inactive
51	CG6428	DRSC18402	5	inactive
52	CG43737	DRSC19609	6	inactive
53	CG8870	DRSC16452	7	inactive
54	CG10591	DRSC09748	7	inactive
55	CG10591	DRSC27468	6	inactive
56	lili (lilipod)	DRSC14143	6	inactive
57	lili (lilipod)	DRSC29667	7	inactive
58	elgi (early girl)	DRSC10242	8	inactive
59	elgi (early girl)	DRSC29665	3	inactive
60	Usp2 (Ubiquitin specific protease 2)	DRSC20590	7	inactive
61	Usp2 (Ubiquitin specific protease 2)	DRSC20632	3	inactive
62	Usp2 (Ubiquitin specific protease 2)	DRSC20633	10	inactive
63	Usp2 (Ubiquitin specific protease 2)	DRSC27066	3	inactive
64	CG31523	DRSC12009	10	inactive
65	CG31523	DRSC12337	10	inactive
66	CG31523	DRSC27253	5	inactive
67	Or88a (Odorant receptor 88a)	DRSC16770	5	inactive
68	CG1136	DRSC08184	4	inactive
69	CG7101	DRSC20023	11	inactive
70	CG7101	DRSC22845	3	inactive
71	Usp15-31 (Ubiquitin specific protease 15/31)	DRSC04426	7	inactive
72	Usp15-31 (Ubiquitin specific protease 15/31)	DRSC24986	4	inactive
73	Erk7 (Extracellularly regulated kinase 7)	DRSC18127	11	inactive
74	Erk7 (Extracellularly regulated kinase 7)	DRSC18227	13	inactive
75	Erk7 (Extracellularly regulated kinase 7)	DRSC21895	7	inactive
76	CG14621	DRSC20635	5	inactive
77	CG14621	DRSC27094	7	inactive
78	CG5805	DRSC15878	5	inactive
79	CG5805	DRSC24253	5	inactive
80	Hen1 (Hen1 methyltransferase)	DRSC06139	8	inactive
81	Hen1 (Hen1 methyltransferase)	DRSC06140	2	inactive
82	Hen1 (Hen1 methyltransferase)	DRSC26993	4	inactive
83	crm (cramped)	DRSC18754	11	inactive
84	crm (cramped)	DRSC26508	4	inactive
85	crm (cramped)	DRSC39136	7	inactive
86	Nufip	DRSC10397	7	inactive
87	Vps2 (Vacuolar protein sorting 2)	DRSC14886	17	inactive
88	Vps2 (Vacuolar protein sorting 2)	DRSC27194	23	inactive
89	CG7548	DRSC10874	5	inactive
90	CG7548	DRSC29043	3	inactive
91	CG7227	DRSC03032	4	inactive
92	Vps13D (Vacuolar protein sorting 13D)	DRSC09818	2	inactive
93	Vps13D (Vacuolar protein sorting 13D)	DRSC09819	2	inactive
94	sloth2 + sloth1	DRSC17922	17	inactive
95	sloth2 + sloth1	DRSC17923	7	inactive
96	INPP5E (Inositol polyphosphate 5-phosphatase E)	DRSC09723	4	inactive
97	CG34462	DRSC10768	8	inactive
98	CG34462	DRSC25352	9	inactive
99	Mst57Db (Male-specific RNA 57Db)	DRSC21551	6	inactive
100	CG7634	DRSC11843	11	inactive
101	CG8132	DRSC16383	7	inactive
102	CG32588	DRSC22285	9	inactive
103	CG8664	DRSC20116	8	inactive
104	Mitofilin	DRSC16742	9	inactive
105	CG11060	DRSC06029	4	inactive
106	slmo + CG34179	DRSC03143	4	inactive
107	CG33464 (retired record)	DRSC22936	8	inactive
108	l(2)34Fc (lethal (2) 34Fc)	DRSC01910	8	inactive
109	CG15044	DRSC19620	8	inactive
110	CG15044	DRSC21385	3	inactive
111	CG15044	DRSC28226	2	inactive
112	CG1958	DRSC18196	18	inactive
113	CG1958	DRSC25599	7	inactive
114	CG7544	DRSC07023	22	inactive
115	Scsalpha2 (Succinyl-coenzyme A synthetase alpha subunit 2)	DRSC16003	3	inactive
116	MFS15 (Major Facilitator Superfamily Transporter 15)	DRSC06523	8	inactive
117	MFS15 (Major Facilitator Superfamily Transporter 15)	DRSC28274	5	inactive
118	Rpe (Ribulose-5-phosphate-3-epimerase)	DRSC06407	7	inactive
119	yellow-h	DRSC17141	15	inactive
120	Gcn5 (Gcn5 acetyltransferase)	DRSC11248	7	inactive
121	Gcn5 (Gcn5 acetyltransferase)	DRSC26932	4	inactive
122	klar (klarsicht)	DRSC08718	4	inactive
123	klar (klarsicht)	DRSC22393	7	inactive
124	Drep4 (DNA fragmentation factor-related protein 4)	DRSC03408	5	inactive
125	CG32733 (retired record)	DRSC17481	2	inactive
126	CG32733 (retired record)	DRSC28689	2	inactive
127	Rpt6 (Regulatory particle triple-A ATPase 6)	DRSC20571	6	inactive
128	Rpt6 (Regulatory particle triple-A ATPase 6)	DRSC27933	12	inactive
129	Su(dx) (Suppressor of deltex)	DRSC00791	3	inactive
130	Su(dx) (Suppressor of deltex)	DRSC26192	2	inactive
131	CG10508	DRSC11612	4	inactive
132	CG10508	DRSC11613	2	inactive
133	CG13021	DRSC17893	7	inactive
134	CG6749	DRSC10704	6	inactive
135	CG7601	DRSC14131	9	inactive
136	Atg6 (Autophagy-related 6)	DRSC15798	6	inactive
137	Atg6 (Autophagy-related 6)	DRSC24442	8	inactive
138	cerv (cervantes)	DRSC19681	6	inactive
139	cerv (cervantes)	DRSC25320	4	inactive
140	Pfk (Phosphofructokinase)	DRSC07506	10	inactive
141	Pfk (Phosphofructokinase)	DRSC27413	9	inactive

A portion taken from the entries so far, as a working copy:
no.	Gene	dsRNA	mitotic cells, replicate 1	outcome
18	CG11241	DRSC22165	9	inactive
19	CG34427	DRSC09978	3	inactive
20	CG12477	DRSC09886	8	inactive
21	CG12477	DRSC24078	5	inactive
22	snama (something that sticks like glue)	DRSC04049	11	inactive
23	snama (something that sticks like glue)	DRSC28914	8	inactive
24	CG6675	DRSC03735	8	inactive
25	Ir62a (Ionotropic receptor 62a)	DRSC08250	14	inactive
26	CG6429	DRSC06986	8	inactive
27	CG13443	DRSC06403	7	inactive
28	CG34386	DRSC06468	9	inactive
